The target in experiment [1] is T1, TRIM24-SFB (overexpressed in 293T cells) (UniProt O15164).
T1 sequence: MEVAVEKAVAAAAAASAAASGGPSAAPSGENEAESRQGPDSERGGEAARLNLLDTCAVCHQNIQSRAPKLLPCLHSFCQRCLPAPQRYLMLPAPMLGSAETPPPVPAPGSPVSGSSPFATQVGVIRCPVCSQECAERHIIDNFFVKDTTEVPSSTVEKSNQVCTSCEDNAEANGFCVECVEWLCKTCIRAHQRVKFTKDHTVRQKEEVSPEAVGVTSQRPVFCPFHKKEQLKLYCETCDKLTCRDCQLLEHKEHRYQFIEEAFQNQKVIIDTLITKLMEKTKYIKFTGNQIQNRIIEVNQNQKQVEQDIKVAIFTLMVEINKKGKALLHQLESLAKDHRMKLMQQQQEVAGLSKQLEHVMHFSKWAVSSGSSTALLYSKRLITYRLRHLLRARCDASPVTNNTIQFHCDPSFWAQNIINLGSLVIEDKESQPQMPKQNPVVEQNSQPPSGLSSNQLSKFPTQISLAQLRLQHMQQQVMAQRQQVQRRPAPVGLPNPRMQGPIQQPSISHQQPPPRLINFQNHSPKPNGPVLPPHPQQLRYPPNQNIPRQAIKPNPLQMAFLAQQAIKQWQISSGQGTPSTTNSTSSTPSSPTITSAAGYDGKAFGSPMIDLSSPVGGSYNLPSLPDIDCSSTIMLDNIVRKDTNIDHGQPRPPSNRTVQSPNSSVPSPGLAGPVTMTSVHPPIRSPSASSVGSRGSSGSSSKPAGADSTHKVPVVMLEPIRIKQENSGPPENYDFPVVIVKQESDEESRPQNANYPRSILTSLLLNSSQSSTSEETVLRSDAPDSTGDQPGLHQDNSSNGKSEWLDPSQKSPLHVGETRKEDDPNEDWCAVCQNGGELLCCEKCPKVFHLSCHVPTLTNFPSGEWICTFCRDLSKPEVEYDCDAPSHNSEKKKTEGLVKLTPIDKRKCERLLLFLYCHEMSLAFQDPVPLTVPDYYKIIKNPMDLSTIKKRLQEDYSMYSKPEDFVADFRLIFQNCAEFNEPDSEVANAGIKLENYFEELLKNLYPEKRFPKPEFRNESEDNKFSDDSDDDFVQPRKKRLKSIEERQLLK
The experiment in a line: co-IP; S-protein agarose beads pull-down of the SFB-tagged bait from 293T (HEK293T) lysates, 3 h at 4 °C; immunoblot; in Fig. 3d, h cells treated with 20 uM MG132 for 24 h. A general note: A western blot detects proteins with antibodies after separation by electrophoresis.

Amino acid sequences for entries named in this document (tags omitted).
UniProt Q13263: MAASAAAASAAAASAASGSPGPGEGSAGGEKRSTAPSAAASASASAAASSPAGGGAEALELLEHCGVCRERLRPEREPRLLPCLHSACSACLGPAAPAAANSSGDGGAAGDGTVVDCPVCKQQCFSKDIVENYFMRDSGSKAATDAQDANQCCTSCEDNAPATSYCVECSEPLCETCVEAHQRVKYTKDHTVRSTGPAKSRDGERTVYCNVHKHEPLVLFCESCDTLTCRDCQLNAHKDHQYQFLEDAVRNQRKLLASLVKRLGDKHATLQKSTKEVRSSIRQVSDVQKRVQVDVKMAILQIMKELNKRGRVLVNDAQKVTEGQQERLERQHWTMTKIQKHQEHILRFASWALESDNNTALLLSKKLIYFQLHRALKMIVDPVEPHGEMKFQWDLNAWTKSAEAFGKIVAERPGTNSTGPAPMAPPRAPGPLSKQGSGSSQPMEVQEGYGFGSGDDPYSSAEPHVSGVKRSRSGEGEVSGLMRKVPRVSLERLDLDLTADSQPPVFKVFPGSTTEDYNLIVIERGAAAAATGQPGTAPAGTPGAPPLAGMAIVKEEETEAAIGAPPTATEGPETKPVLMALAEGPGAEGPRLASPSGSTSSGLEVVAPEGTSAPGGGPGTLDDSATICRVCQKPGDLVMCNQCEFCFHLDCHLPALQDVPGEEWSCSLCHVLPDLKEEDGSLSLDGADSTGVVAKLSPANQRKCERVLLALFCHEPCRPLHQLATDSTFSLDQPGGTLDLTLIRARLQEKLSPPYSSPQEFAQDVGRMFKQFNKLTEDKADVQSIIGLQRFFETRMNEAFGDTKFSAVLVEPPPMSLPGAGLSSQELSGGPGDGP
UniProt O43791: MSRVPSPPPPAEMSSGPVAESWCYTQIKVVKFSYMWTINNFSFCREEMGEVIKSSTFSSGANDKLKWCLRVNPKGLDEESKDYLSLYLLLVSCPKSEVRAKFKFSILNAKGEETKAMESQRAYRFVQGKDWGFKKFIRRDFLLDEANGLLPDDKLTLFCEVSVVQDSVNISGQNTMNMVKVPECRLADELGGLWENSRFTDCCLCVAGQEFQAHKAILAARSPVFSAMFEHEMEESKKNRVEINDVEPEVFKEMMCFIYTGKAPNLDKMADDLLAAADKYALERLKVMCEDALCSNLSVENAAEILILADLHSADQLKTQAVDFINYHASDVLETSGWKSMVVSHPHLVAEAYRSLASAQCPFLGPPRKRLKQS

The target in the next experiment is T2, TRIM24-SFB (UniProt O15164).
T2 sequence: T1 sequence
The experiment can be described thus: pull-down; S-beads (S-protein agarose) pull down TRIM24-SFB from extract of HEK293T cells co-transfected with Myc-RBX1 or Myc-CUL3, with or without HA-TRIM28; cells treated with 20uM MG132 for 24 hrs; bound proteins analysed by immunoblotting.

Experiment [2] concerns the target T3, TRIM24 Δ300–460 mutant (TRIM24-SFB) (UniProt O15164).
T3 sequence: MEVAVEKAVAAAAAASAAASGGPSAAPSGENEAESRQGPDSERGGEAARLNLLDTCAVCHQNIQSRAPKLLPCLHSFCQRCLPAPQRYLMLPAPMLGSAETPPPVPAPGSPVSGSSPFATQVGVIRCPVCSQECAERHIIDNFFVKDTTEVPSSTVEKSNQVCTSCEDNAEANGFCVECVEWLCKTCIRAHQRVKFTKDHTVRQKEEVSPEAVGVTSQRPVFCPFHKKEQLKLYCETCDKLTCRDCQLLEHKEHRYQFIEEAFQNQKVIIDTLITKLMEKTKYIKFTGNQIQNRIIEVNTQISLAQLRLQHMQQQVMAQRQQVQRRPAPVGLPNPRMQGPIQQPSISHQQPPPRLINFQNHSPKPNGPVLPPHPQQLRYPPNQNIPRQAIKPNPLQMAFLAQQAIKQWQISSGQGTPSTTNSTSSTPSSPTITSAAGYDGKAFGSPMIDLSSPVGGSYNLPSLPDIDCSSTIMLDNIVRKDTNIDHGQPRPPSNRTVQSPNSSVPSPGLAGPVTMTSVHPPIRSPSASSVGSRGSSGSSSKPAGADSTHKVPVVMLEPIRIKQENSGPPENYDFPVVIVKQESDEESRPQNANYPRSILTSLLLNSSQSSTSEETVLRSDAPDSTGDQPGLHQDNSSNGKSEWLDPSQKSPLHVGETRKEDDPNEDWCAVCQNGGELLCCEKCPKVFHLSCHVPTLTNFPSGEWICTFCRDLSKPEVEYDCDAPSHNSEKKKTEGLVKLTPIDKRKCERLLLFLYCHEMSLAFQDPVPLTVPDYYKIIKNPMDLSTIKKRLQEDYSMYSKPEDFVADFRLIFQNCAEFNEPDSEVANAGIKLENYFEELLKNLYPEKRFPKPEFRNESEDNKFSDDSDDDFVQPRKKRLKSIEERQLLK
The experiment can be described thus: co-IP; S-protein agarose beads pull-down of the SFB-tagged bait from 293T (HEK293T) lysates, 3 h at 4 °C; immunoblot; in Fig. 3d, h cells treated with 20 uM MG132 for 24 h.

The target in the next experiment is T4, GST-TRIM24 (1–400aa) (UniProt O15164).
T4 sequence: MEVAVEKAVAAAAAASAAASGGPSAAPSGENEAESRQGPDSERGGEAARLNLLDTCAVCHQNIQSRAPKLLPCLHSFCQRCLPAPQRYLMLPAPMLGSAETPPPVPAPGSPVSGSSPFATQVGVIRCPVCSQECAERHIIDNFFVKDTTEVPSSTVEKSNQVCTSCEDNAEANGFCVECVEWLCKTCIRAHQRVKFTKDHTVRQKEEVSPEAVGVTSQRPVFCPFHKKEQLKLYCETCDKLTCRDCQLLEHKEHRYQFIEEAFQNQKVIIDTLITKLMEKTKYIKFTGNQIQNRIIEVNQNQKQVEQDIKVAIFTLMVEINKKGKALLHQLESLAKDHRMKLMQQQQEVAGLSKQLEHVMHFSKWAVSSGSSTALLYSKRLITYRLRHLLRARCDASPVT
The experiment in a line: pull-down; bacterial recombinant GST-TRIM24 (1–400aa) on GSH beads, incubated 2–3 h with LNCaP lysates expressing SFB-tagged TRIM28 full length or deletion mutants; washed with NETN; blot with anti-Flag; only the target purified.

For experiment [3], the target named is endogenous TRIM28 (LNCaP cells) (human (endogenous in LNCaP)) (UniProt Q13263). The experiment in a line: co-IP; endogenous proteins; LNCaP lysate with 2 ug anti-TRIM28 overnight at 4 °C, Dynabeads Protein A 2 h; immunoblot.
Experiment [4] concerns the target TRIM28-SFB (ectopic, 293T cells) (UniProt Q13263). The experiment in a line: co-IP; S-protein agarose beads pull-down of the SFB-tagged bait from 293T (HEK293T) lysates, 3 h at 4 °C; immunoblot; in Fig. 3d, h cells treated with 20 uM MG132 for 24 h.

No constants are given. Whether binding was seen depends on the method and setting. Binding seen in cells or lysates may run through a third protein. Some entries that bind do so weakly or less than the wild type. For some assays here: Where a sequence is shown, tags or fusion partners need not be part of it.

Six molecules from publication PMC6258673 can be followed below.

In the case of HA-TRIM28 (from UniProt Q13263 1-835), the binding entry (in experiment [1]; in the experiment with TRIM24-SFB) was “binds” each time.
For the molecule Myc-SPOP (from UniProt O43791 1-374), the binding result in experiment [1] and in experiment [2] was “binds” each time.
As to “SFB-tagged TRIM28 wild type (LNCaP cells) (from UniProt Q13263 1-835)”, in the experiment with GST-TRIM24 (1–400aa), the binding result is on record as “binds”.
With “endogenous TRIM28 (293T cells) (from UniProt Q13263 1-835)”, the binding entry in experiment [1] is given as “binds”.

B1: endogenous TRIM24 (LNCaP cells) (protein, UniProt O15164 1-1050)
chain: T1 sequence
As to B1, in experiment [3], the binding result is recorded as “binds”.

B2: TRIM24 in 293T cells (retained by TRIM28-SFB) (protein, UniProt O15164 1-1050)
chain: T1 sequence
For the molecule B2, the binding result in experiment [4] is “binds”.
